Values of other authors as cited in patent US10912838B2, “Carrier for use in delivering drug, conjugate, composition comprising same, and method for administrating same” (THE UNIVERSITY OF TOKYO, priority 2013, dated 2021).
Structures can show the parent of a compound that is named as a salt.

Settings: literature value

COc1cc2c(cc1OC)C(=O)C(CC1CCN(Cc3ccccc3)CC1)C2 (stereo not shown) [donepezil hydrochloride]
accumulation in the brain, of the total dose per g of the brain: 0.13%
